Drawing on paper PMC5193325, this text covers binding for one substance.

Sequences of proteins named here, by UniProt entry; tags and fusion partners are left off.
UniProt Q96P20: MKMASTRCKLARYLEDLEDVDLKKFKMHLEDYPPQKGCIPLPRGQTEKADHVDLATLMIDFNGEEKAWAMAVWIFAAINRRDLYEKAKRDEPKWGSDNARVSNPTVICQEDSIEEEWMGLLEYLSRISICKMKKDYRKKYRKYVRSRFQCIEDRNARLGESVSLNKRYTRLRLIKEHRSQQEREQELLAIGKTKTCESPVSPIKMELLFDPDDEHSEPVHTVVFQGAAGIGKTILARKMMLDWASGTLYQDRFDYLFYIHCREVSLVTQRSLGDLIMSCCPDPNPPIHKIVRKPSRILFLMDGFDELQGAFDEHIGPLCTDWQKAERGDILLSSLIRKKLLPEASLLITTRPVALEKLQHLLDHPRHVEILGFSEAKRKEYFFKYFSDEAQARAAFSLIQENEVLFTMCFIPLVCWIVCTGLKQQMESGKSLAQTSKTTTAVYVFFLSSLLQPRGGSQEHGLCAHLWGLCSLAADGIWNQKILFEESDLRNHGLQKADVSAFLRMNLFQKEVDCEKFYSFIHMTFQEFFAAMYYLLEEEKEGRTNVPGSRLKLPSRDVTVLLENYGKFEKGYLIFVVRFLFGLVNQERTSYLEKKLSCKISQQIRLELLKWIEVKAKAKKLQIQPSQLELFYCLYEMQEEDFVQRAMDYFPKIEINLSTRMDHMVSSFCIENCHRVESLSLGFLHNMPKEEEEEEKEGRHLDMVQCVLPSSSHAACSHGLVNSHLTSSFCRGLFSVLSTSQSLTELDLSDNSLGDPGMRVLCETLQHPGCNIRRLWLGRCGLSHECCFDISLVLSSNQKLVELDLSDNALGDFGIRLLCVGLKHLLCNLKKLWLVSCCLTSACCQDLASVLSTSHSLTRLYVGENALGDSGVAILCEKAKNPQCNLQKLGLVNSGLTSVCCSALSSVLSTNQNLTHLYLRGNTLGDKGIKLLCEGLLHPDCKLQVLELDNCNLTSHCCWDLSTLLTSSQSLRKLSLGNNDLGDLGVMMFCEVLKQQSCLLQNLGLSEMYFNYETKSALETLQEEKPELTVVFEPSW
UniProt P99999: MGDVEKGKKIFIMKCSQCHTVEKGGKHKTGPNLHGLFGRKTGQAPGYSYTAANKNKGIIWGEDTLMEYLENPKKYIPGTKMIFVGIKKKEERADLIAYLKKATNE

In experiment [1] the target is NLRP3 (NLR family, pyrin domain containing 3), endogenous (human (endogenous in THP-1)) (UniProt Q96P20). Put plainly: co-IP; NLRP3 immunoprecipitated from the cytosolic fraction of THP-1 cells treated with LPS and with ATP or not; immunoblot for cytochrome c.
Experiment [2] has the same target. Description: co-IP; NLRP3 immunoprecipitated from lysates of LPS-primed THP-1 macrophage cells, stimulated with ATP (5 mM, 1 h) or not; immunoblot for cytochrome c; lysis buffer 20 mM HEPES pH 7.4, 0.5% Triton X-100, 0.5% CHAPS, 10% glycerol; 4°C. For orientation: In western blotting, separated proteins are transferred to a membrane and probed.

Results are given in words; binding and its absence hold for the method and conditions named. Binding seen in cells or lysates may run through a third protein. Some entries that bind do so weakly or less than the wild type.

On to “cytochrome c, endogenous (from UniProt P99999 1-105)”, for which the binding result in experiment [1] and in experiment [2] was “binds” in each case.
